Taken from: PubChem BioAssay AID1224828 (NIAID, 2016)

Purpose: 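Knock-downs that increase or decrease LPS-induced p65 nuclear translocation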 (primary screen)
System: mouse RAW264.7 G9 macrophage reporter cells (GFP-p65, Tnf promoter-mCherry)
Reagent: siRNA pool against mouse genes, 100 nM
Duration: 2 days siRNA transfection, then 40 min LPS before fixation
Challenge: LPS (Salmonella minnesota R595) at 10 ng/ml
Measurement: 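Microscopy ratio of nuclear to perinuclear-ring GFP-p65 signal, scaled to the plate median; gene score is the average of two replicate robust z-scores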
Direction: p65 translocation robust z-score: higher = more nuclear NF-kappaB p65 after LPS than the plate median; nuclear/cytoplasmic p65 ratio: higher = more nuclear NF-kappaB p65
Rule for the call: 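Active if robust z is above 3.3 (negative regulators) or below -1.56, the Tlr4 control median (positive regulators); activity score 50 or more; control wells not called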
Calls: active = hit (p65 shift raised or lowered); inactive = no clear change
Here is an unselected part of about 17,000 reagents. 762 of all reagents (4.5%) count as active. 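Active calls include both raised and lowered p65 entry, mostly lowered; wells with fewer than 50 cells lack a z-score.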 Raw values are not corrected between plates. A reagent listed more than once was tested more than once; the source does not tell the runs apart.

What is on record for Cinp (cyclin dependent kinase 2 interacting protein)?
p65 translocation robust z-score: -1.82; nuclear/cytoplasmic p65 ratio, rep 1: 1.51; nuclear/cytoplasmic p65 ratio, rep 2: 1.16; low cell count flag: enough cells to score; activity call: active

For Cinp (cyclin dependent kinase 2 interacting protein), how do the results read?
nuclear/cytoplasmic p65 ratio, rep 1: 1.02; nuclear/cytoplasmic p65 ratio, rep 2: 0.996; low cell count flag: fewer than 50 cells per well; well left out of scoring; activity call: inactive

What did the screen give for Aebp2 (AE binding protein 2)?
p65 translocation robust z-score: -1.02; nuclear/cytoplasmic p65 ratio, rep 1: 1.18; nuclear/cytoplasmic p65 ratio, rep 2: 1.55; low cell count flag: enough cells to score; activity call: inactive

For Rab1a (RAB1A, member RAS oncogene family), what was measured?
p65 translocation robust z-score: 0.61; nuclear/cytoplasmic p65 ratio, rep 1: 1.58; nuclear/cytoplasmic p65 ratio, rep 2: 1.62; low cell count flag: enough cells to score; activity call: inactive

What did the screen give for Pts (6-pyruvoyl-tetrahydropterin synthase)?
p65 translocation robust z-score: -0.71; nuclear/cytoplasmic p65 ratio, rep 1: 1.45; nuclear/cytoplasmic p65 ratio, rep 2: 1.38; low cell count flag: enough cells to score; activity call: inactive

With Wasf1 (WASP family, member 1), what was measured?
p65 translocation robust z-score: 0.2; nuclear/cytoplasmic p65 ratio, rep 1: 1.6; nuclear/cytoplasmic p65 ratio, rep 2: 1.57; low cell count flag: enough cells to score; activity call: inactive

For Glra3 (glycine receptor, alpha 3 subunit), what does the deposit list?
p65 translocation robust z-score: -1.2; nuclear/cytoplasmic p65 ratio, rep 1: 1.26; nuclear/cytoplasmic p65 ratio, rep 2: 1.24; low cell count flag: enough cells to score; activity call: inactive

With Tspan7 (tetraspanin 7), what does the deposit list?
p65 translocation robust z-score: -0.39; nuclear/cytoplasmic p65 ratio, rep 1: 1.5; nuclear/cytoplasmic p65 ratio, rep 2: 1.43; low cell count flag: enough cells to score; activity call: inactive

With Inpp4a (inositol polyphosphate-4-phosphatase, type I), what was measured?
p65 translocation robust z-score: -1.04; nuclear/cytoplasmic p65 ratio, rep 1: 1.41; nuclear/cytoplasmic p65 ratio, rep 2: 1.18; low cell count flag: enough cells to score; activity call: inactive

How did the screen score Mllt10?
p65 translocation robust z-score: 1.17; nuclear/cytoplasmic p65 ratio, rep 1: 1.6; nuclear/cytoplasmic p65 ratio, rep 2: 1.49; low cell count flag: enough cells to score; activity call: inactive

With Edem1 (ER degradation enhancer, mannosidase alpha-like 1), how do the results read?
p65 translocation robust z-score: 0.69; nuclear/cytoplasmic p65 ratio, rep 1: 1.65; nuclear/cytoplasmic p65 ratio, rep 2: 1.38; low cell count flag: enough cells to score; activity call: inactive

With Klhdc10 (kelch domain containing 10), how do the results read?
p65 translocation robust z-score: -0.83; nuclear/cytoplasmic p65 ratio, rep 1: 1.49; nuclear/cytoplasmic p65 ratio, rep 2: 1.49; low cell count flag: enough cells to score; activity call: inactive

For Castor2 (cytosolic arginine sensor for mTORC1 subunit 2), how do the results read?
p65 translocation robust z-score: 0.53; nuclear/cytoplasmic p65 ratio, rep 1: 1.61; nuclear/cytoplasmic p65 ratio, rep 2: 1.59; low cell count flag: enough cells to score; activity call: inactive

For Nid2 (nidogen 2), how do the results read?
p65 translocation robust z-score: 0.16; nuclear/cytoplasmic p65 ratio, rep 1: 1.63; nuclear/cytoplasmic p65 ratio, rep 2: 1.28; low cell count flag: enough cells to score; activity call: inactive

What did the screen give for Oprd1 (opioid receptor, delta 1)?
p65 translocation robust z-score: 1.23; nuclear/cytoplasmic p65 ratio, rep 1: 1.61; nuclear/cytoplasmic p65 ratio, rep 2: 1.84; low cell count flag: enough cells to score; activity call: inactive

With Gbp8 (guanylate-binding protein 8), how do the results read?
nuclear/cytoplasmic p65 ratio, rep 1: 1.14; nuclear/cytoplasmic p65 ratio, rep 2: 1.06; low cell count flag: fewer than 50 cells per well; well left out of scoring; activity call: inactive

With Kcnk2 (potassium channel, subfamily K, member 2), how do the results read?
p65 translocation robust z-score: -1.82; nuclear/cytoplasmic p65 ratio, rep 1: 1.28; nuclear/cytoplasmic p65 ratio, rep 2: 1.2; low cell count flag: enough cells to score; activity call: active

How did the screen score Hprt1 (hypoxanthine phosphoribosyltransferase 1)?
p65 translocation robust z-score: 0.77; nuclear/cytoplasmic p65 ratio, rep 1: 1.45; nuclear/cytoplasmic p65 ratio, rep 2: 1.56; low cell count flag: enough cells to score; activity call: inactive

How did the screen score Angpt1 (angiopoietin 1)?
p65 translocation robust z-score: -0.73; nuclear/cytoplasmic p65 ratio, rep 1: 1.52; nuclear/cytoplasmic p65 ratio, rep 2: 1.5; low cell count flag: enough cells to score; activity call: inactive

Which result is listed for Serpina9?
p65 translocation robust z-score: 1.28; nuclear/cytoplasmic p65 ratio, rep 1: 1.57; nuclear/cytoplasmic p65 ratio, rep 2: 1.14; low cell count flag: enough cells to score; activity call: inactive

For Psmd12 (proteasome (prosome, macropain) 26S subunit, non-ATPase, 12), how do the results read?
nuclear/cytoplasmic p65 ratio, rep 1: 1.58; nuclear/cytoplasmic p65 ratio, rep 2: 1.26; low cell count flag: fewer than 50 cells per well; well left out of scoring; activity call: inactive

Just “nuclear/cytoplasmic p65 ratio, rep 1” (2 entries from above):
Glra3 (glycine receptor, alpha 3 subunit)	1.26
Tspan7 (tetraspanin 7)	1.5
